The target of assay [1] is T1, Dnm1p (budding yeast) (UniProt P54861).
T1 sequence (looked up): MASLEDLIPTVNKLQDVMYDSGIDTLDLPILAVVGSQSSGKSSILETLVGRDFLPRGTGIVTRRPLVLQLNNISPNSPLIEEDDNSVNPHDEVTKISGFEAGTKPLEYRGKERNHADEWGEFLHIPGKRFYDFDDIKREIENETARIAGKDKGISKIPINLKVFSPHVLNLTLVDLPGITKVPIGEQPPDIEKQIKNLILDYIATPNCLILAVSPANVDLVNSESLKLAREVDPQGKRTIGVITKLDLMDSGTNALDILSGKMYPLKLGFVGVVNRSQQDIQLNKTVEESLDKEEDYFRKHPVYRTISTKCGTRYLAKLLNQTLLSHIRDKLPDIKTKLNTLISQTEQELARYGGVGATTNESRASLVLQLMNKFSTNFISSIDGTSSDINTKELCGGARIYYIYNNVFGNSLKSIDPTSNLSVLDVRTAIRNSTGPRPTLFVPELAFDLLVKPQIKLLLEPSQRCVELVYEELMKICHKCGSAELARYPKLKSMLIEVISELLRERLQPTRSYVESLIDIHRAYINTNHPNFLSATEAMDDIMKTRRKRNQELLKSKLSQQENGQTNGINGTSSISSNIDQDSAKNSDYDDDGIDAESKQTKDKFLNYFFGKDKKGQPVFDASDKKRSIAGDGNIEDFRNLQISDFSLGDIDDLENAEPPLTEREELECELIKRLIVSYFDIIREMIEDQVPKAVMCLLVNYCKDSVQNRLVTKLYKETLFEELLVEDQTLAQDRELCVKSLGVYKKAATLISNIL
Kind of assay: co-immunoprecipitation from yeast extracts (Mdv1p-GFP, Dnm1p-myc), H2O2 stress.

Assay [2] addresses T1, Dnm1p (budding yeast). Kind of assay: co-immunoprecipitation from extracts of wild type and cnc1 deletion yeast (Mdv1p-GFP, Dnm1p-myc).
Assay [3] addresses T2, Mdv1p (budding yeast) (UniProt P47025).
T2 sequence (looked up): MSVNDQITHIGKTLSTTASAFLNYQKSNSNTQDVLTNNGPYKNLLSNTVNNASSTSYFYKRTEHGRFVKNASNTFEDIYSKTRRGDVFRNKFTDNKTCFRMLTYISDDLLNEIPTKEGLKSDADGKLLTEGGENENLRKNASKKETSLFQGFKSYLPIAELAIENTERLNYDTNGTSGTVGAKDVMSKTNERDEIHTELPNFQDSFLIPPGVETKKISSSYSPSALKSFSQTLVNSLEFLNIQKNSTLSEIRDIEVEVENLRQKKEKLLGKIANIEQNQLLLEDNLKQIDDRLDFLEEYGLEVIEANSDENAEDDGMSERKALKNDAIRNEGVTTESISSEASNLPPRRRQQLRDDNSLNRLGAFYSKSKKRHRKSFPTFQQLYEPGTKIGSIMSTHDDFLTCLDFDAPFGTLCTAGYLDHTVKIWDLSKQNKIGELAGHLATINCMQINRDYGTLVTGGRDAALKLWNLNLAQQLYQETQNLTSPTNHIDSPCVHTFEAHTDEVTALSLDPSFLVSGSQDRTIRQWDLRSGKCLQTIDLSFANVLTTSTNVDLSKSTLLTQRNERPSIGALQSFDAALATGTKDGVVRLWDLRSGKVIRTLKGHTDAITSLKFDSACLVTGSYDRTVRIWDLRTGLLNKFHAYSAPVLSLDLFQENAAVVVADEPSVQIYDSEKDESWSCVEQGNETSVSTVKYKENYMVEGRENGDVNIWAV
Description: summary of the yeast experiments (co-localisation, two-hybrid, co-immunoprecipitation).

For assay [4], the target named is T2, Mdv1p (budding yeast). Kind of assay: co-localisation, yeast two-hybrid and co-immunoprecipitation (FIG. 6).
Assay [5] deals with T2, Mdv1p (budding yeast). Kind of assay: co-immunoprecipitation from yeast extracts (cyclin C-TAP, Mdv1p-HA), H2O2 stress timecourse.

These are yes or no findings as the source states them, for the method shown. In cells and extracts the contact can be indirect. Some entries that bind do so weakly or less than the wild type.

B1: Mdv1p (protein, budding yeast, UniProt P47025 1-714, looked up)
chain: T2 sequence (looked up)
In the case of B1, the binding entry with Dnm1p (budding yeast) [1] and with Dnm1p (budding yeast) [2] was “binds” throughout.

B2: cyclin C (yeast; CNC1 gene product) (protein, budding yeast, UniProt P47821 1-323, looked up)
chain: MSGSFWTSTQRHHWQYTKASLAKERQKLWLLECQLFPQGLNIVMDSKQNGIEQSITKNIPITHRDLHYDKDYNLRIYCYFLIMKLGRRLNIRQYALATAHIYLSRFLIKASVREINLYMLVTTCVYLACKVEECPQYIRTLVSEARTLWPEFIPPDPTKVTEFEFYLLEELESYLIVHHPYQSLKQIVQVLKQPPFQITLSSDDLQNCWSLINDSYINDVHLLYPPHIIAVACLFITISIHGKPTKGSSLASAASEAIRDPKNSSSPVQIAFNRFMAESLVDLEEVMDTIQEQITLYDHWDKYHEQWIKFLLHTLYLRPASAI
In the case of B2, the binding result with Mdv1p (budding yeast) [3], in the assay with Mdv1p (budding yeast) [4] and with Mdv1p (budding yeast) [5] was “binds” throughout.

(Values after patent US20160367630A1.)
